According to article PMC4133388:
No constants are given. Whether binding was seen depends on the method and setting. In cells and extracts the contact can be indirect. Some entries that bind do so weakly or less than the wild type.

Sequences of proteins named here, by UniProt entry; tags and fusion partners are left off. A change or cut given only in a name is not applied to a line headed by its entry. A line that says so, or that is headed by a name, gives the form on record, which may keep a tag or linker. Residues count along the entry.
UniProt P11309: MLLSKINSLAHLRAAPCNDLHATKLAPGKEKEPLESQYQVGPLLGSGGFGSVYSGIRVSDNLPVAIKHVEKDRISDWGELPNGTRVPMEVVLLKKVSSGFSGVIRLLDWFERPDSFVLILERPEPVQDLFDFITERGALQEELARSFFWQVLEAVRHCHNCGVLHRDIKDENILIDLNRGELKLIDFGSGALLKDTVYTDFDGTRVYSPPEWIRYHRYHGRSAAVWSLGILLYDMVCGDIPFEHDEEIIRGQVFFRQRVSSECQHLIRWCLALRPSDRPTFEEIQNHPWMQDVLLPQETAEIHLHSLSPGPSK
UniProt P03204: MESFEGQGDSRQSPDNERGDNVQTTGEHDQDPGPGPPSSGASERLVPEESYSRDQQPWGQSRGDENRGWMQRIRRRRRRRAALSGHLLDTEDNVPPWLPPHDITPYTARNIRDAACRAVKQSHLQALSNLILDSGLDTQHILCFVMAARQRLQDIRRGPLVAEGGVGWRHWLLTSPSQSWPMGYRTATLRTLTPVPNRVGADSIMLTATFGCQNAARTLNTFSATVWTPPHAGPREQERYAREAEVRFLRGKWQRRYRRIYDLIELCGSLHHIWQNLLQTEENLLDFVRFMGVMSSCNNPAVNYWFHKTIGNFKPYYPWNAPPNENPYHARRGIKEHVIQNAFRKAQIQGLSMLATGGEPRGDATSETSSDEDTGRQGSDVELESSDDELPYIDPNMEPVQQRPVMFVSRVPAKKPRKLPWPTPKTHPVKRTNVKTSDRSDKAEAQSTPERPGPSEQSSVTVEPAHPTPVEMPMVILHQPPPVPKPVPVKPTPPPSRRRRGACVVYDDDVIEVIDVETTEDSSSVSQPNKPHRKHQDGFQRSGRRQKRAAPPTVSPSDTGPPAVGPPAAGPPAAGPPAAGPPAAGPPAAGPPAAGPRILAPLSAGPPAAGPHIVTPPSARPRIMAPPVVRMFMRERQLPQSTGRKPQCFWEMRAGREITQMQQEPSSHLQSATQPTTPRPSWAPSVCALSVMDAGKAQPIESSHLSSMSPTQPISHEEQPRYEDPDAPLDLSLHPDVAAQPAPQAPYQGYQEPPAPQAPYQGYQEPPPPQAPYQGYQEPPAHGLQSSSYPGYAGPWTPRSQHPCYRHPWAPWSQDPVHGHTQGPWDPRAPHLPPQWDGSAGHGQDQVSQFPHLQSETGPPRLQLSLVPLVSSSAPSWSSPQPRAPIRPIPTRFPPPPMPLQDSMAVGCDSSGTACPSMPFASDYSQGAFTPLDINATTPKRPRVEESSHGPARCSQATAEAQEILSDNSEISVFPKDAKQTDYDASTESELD
Myc-tagged EBNA3C residues 1–365 (Epstein-Barr virus (strain B95-8)): residues 1-365 of P03204
GST-EBNA3C residues 130–159 (Epstein-Barr virus (strain B95-8)): residues 130-159 of P03204
UniProt P38936: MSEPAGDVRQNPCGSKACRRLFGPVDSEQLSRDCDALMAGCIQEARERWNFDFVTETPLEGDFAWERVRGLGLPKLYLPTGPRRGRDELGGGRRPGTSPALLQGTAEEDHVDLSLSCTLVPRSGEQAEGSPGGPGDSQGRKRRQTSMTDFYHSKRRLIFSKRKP

Columns and labels:
[1] = target: endogenous Pim-1 (human (endogenous in BJAB7, BJAB10, LCL1, LCL2)) (UniProt P11309); experiment: co-IP; 50 million BJAB, BJAB7, BJAB10, LCL1, LCL2 cells lysed; IP with Pim-1 specific antibody; endogenous EBNA3C and Pim-1 detected by Western blot
GST-Pim-1 (human) [2] = target: GST-Pim-1 (human) (UniProt P11309); experiment: pull-down; BJAB, BJAB7/BJAB10 and LCL1 lysates (RIPA buffer) incubated with GST control or GST-Pim-1 beads; washed with Binding Buffer (1× PBS, 0.1% NP-40, 0.5 mM DTT, 10% glycerol); EBNA3C detected by Western blot with A10; only the target purified
[3] = target: Myc-tagged EBNA3C residues 1–365 (Epstein-Barr virus (strain B95-8)) (UniProt P03204); experiment: co-IP; HEK-293 cells co-transfected by electroporation, harvested 36 hrs post-transfection, RIPA buffer lysates (0.5% NP-40, 10 mM Tris pH 7.5, 2 mM EDTA, 150 mM NaCl); IP overnight at 4°C with A10, anti-Flag (M2), anti-Myc (9E10) or GFP antibody; Western blot
[4] = target: Myc-tagged full length EBNA3C (residues 1–992) (Epstein-Barr virus (strain B95-8)) (UniProt P03204); experiment: as above
[5] = target: untagged-EBNA3C (Epstein-Barr virus (strain B95-8)) (UniProt P03204); experiment: as above
[6] = target: Flag-tagged EBNA3C (Epstein-Barr virus (strain B95-8)) (UniProt P03204); experiment: as above
Flag-tagged p21 (human) = Flag-tagged p21 (human) (UniProt P38936); experiment: as above
GST-Pim-1 (human) [7] = target: GST-Pim-1 (human) (UniProt P11309); experiment: pull-down; S^35-radiolabeled in vitro translated EBNA3C full length and fragments, pre-cleared with GST-beads, incubated with GST control or GST-Pim-1 beads; washed with Binding Buffer; SDS-PAGE and phosphoimager; only the target purified
[8] = target: GST-EBNA3C residues 130–159 (Epstein-Barr virus (strain B95-8)) (UniProt P03204); experiment: pull-down; S^35-radiolabeled in vitro translated Myc-Pim-1 incubated with GST control or GST-EBNA3C truncated mutant beads; SDS-PAGE and phosphoimager; only the target purified

## EBNA3C of EBV transformed lymphoblastoid cell lines (LCL1, LCL2) (from UniProt P03204 1-992)
[1]
  binding: binds
GST-Pim-1 (human) [2]
  binding: binds

## EBNA3C stably expressed in BJAB cells (BJAB7, BJAB10) (from UniProt P03204 1-992)
[1]
  binding: binds
GST-Pim-1 (human) [2]
  binding: binds

## GFP-tagged Pim-1 (from UniProt P11309 1-313) (enzyme)
[3]
  binding: binds
[4]
  binding: binds

## Myc-tagged Pim-1 (from UniProt P11309 1-313) (enzyme)
[5]
  binding: binds
[6]
  binding: binds

## Myc-tagged full length EBNA3C (residues 1–992) (from UniProt P03204 1-992)
Flag-tagged p21 (human)
  binding: binds

## in vitro translated EBNA3C residues 1–159 (from UniProt P03204 1-159) (domain or fragment)
GST-Pim-1 (human) [7]
  binding: binds

## in vitro translated EBNA3C residues 1–250 (from UniProt P03204 1-250) (domain or fragment)
GST-Pim-1 (human) [7]
  binding: binds

## in vitro translated EBNA3C residues 100–200 (from UniProt P03204 100-200) (domain or fragment)
GST-Pim-1 (human) [7]
  binding: binds

## in vitro translated EBNA3C residues 130–300 (from UniProt P03204 130-300) (domain or fragment)
GST-Pim-1 (human) [7]
  binding: binds

## in vitro translated full length Pim-1 (Myc-Pim-1 construct) (from UniProt P11309 1-313) (enzyme)
[8]
  binding: binds
